Source: the supplement of paper PMC3334620
The full ranking holds about 33,000 sequences; the median of “E-score (-0.5 to 0.5)” is about -0.015, and the highest 2% start at about 0.3. The list shows a part of the results.

target: T1, Abf1 (UniProt P14164); test: PBM E-score (8-mer binding enrichment) (E-score (-0.5 to 0.5)); higher = stronger / more preferred TF binding; details: protein concentration: 200 nM; construct: GST-full length
T1 sequence: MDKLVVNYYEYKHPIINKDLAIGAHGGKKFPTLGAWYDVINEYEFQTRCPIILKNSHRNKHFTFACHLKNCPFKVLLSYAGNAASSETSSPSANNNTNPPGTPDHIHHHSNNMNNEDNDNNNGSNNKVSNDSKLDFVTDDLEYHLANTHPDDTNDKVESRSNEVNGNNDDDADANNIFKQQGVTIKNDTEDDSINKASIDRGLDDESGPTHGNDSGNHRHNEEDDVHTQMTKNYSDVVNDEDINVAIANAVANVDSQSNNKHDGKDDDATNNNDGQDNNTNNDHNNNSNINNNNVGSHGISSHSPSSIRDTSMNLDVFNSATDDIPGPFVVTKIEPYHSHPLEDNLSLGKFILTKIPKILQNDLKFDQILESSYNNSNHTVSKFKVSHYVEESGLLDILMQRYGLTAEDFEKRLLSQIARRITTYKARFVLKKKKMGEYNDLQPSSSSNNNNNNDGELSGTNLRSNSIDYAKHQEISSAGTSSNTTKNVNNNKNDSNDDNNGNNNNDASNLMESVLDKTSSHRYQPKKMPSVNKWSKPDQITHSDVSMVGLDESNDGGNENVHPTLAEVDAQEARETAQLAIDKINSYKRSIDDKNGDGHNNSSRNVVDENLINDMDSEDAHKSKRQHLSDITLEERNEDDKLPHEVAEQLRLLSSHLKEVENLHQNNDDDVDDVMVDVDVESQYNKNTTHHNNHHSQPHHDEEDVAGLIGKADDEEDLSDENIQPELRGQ
Outline: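 E-scores (a modified Wilcoxon-Mann-Whitney statistic) were assigned by the Universal PBM Analysis Suite to every ungapped eight-base word pooled with its reverse complement. The input came from universal all-10-mer Agilent arrays made double-stranded by primer extension and probed with GST-tagged yeast transcription factors at about 100-200 nM. Fluorescent anti-GST detected bound protein, and masliner normalised the scans.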

| Sequence | PBM E-score |
| --- | --- |
| CCAACGAG | 0.0639 |
| CTGGTCCC | -0.157 |
| ACGGAGAT | -0.101 |
| AAATTAAC | -0.0496 |
| AGCCGATG | -0.1 |
| ATTAGACA | 0.119 |
| GGGACCAC | -0.0704 |
| AGGTACTG | -0.0376 |
| TTTCGAAA | 0.0414 |
| ATCAAACA | 0.0965 |
| AATCCCAA | 0.0116 |
| ATATTGAT | 0.2 |
| CCTCGTTC | 0.0231 |
| TATTACGA | 0.311 |
| ACGCATAT | 0.098 |
| ACTGGCAT | -0.21 |
| CAATTATG | 0.0589 |
| CGGGGCCA | -0.0201 |
| CACACCTA | -0.0844 |
| ACGCATAG | 0.0376 |
| CTCGGAAC | 0.174 |
| ATCGTGTA | 0.376 |
| CTGTTCTA | 0.0486 |
| CATGATAA | 0.356 |
| CGGCTCAG | -0.00996 |

| Sequence | PBM E-score |
| --- | --- |
| TGTAGACA | -0.0107 |
| CAGTCGCA | -0.142 |
| ACGCATCT | 0.00362 |
| GCATGTCC | -0.165 |
| ACCGAATC | -0.016 |
| ACAAGCGC | -0.189 |
| CTGCCACC | -0.256 |
| CTTAAGCC | -0.0745 |
| CCCAACGC | -0.172 |
| ACTTCACA | 0.111 |
| CAACATAC | 0.0736 |
| GAGTGCGA | -0.109 |
| AATTGTAC | 0.145 |
| ACGGCCCG | 0.182 |
| CAGAGCAG | -0.105 |
| ACAAGAAT | 0.121 |
| ACTGTTTG | 0.111 |
| AGTATACA | 0.159 |
| GACTTAAA | 0.0992 |
| ACTCTCTC | -0.113 |
| ATGCGTTG | 0.0612 |
| GCATCCAC | 0.0454 |
| GGTTTAAC | -0.0352 |
| CTGGGAAC | 0.18 |
| ACTTTGGA | -0.00181 |

| Sequence | PBM E-score |
| --- | --- |
| CTGTGGTA | -0.146 |
| AACCTTAC | 0.0623 |
| GCCAGAAA | -0.0305 |
| ACTGTCCG | -0.0247 |
| TACAACAA | 0.164 |
| CGCTGAGA | 0.0962 |
| TGCGTACA | 0.0613 |
| CTATGAAA | -0.184 |
| ATATAACA | 0.188 |
| CCATATAC | 0.215 |
| CAGCAGTC | -0.0993 |
| ACACTTCT | -0.0503 |
| AGGGCGGC | -0.31 |
| ATTGATAG | -0.0465 |
| GACACCTA | 0.00716 |
| AATCTACC | 0.0615 |
| GTCTGTTA | 0.00602 |
| GTTCATAA | -0.0308 |
| AGCCATAT | 0.139 |
| ATCGTGCA | 0.282 |
| ATCGAGAC | -0.0469 |
| CGTGTGAA | 0.311 |
| GCGATCTA | 0.116 |
| CCAAGGAG | -0.239 |
| CAGGTTCA | -0.237 |

| Sequence | PBM E-score |
| --- | --- |
| CTGGACTA | -0.186 |
| AGATAATC | 0.137 |
| GATCCAGA | 0.101 |
| CAGCGATA | 0.16 |
| CTCTGGTC | -0.164 |
| AAGGCAGA | -0.139 |
| GTCTCCAC | 0.0228 |
| ACGTACTC | 0.254 |
| CCCTATAA | -0.237 |
| TCCATAAA | -0.0481 |
| CGATCCTC | 0.0191 |
| AATGGTTA | -0.0828 |
| CCACGCCG | 0.0972 |
| AAGATTCA | 0.0295 |
| AAGACTAT | -0.0973 |
| CAGCCTAA | -0.131 |
| AAGGGACT | -0.0432 |
| GACACAGA | -0.119 |
| CTTCGCGC | 0.0468 |
| CAACACGG | 0.0441 |
| ACGGACAC | 0.0423 |
| CTCCTCGA | -0.0241 |
| CCATCGAG | 0.0335 |
| TATTAATA | 0.00602 |
| CCGCTCAG | -0.154 |

| Sequence | PBM E-score |
| --- | --- |
| CCAACTAC | -0.035 |
| AATTGAAG | -0.0559 |
| AGAAGCGC | -0.0211 |
| ACTAGGAG | -0.146 |
| GACGCAGC | -0.202 |
| AATAGGAG | -0.0982 |
| TAGAAAGA | -0.196 |
| CGGTCCGA | -0.071 |
| AAGTGTAG | -0.00418 |
| ACTCTTAC | 0.0283 |
| GCCCAGAC | -0.359 |
| CCTGAAAA | -0.135 |
| ATAGTGAT | 0.436 |
| CCGGTCGC | -0.133 |
| AAAAAGTG | 0.133 |
| ACAAGCAC | -0.0733 |
| GTGTACGA | 0.337 |
| GCGCCCTA | 0.0153 |
| AGATTTGA | 0.0784 |
| AGTCTTGC | 0.0122 |
| ATCTTTCA | 0.233 |
| GGGGTTCA | -0.242 |
| AGTCCAAC | -0.0833 |
| AATAAGTA | 0.185 |
| AGGGGACG | -0.074 |

| Sequence | PBM E-score |
| --- | --- |
| CATACCCA | -0.115 |
| AAGCCCTT | -0.208 |
| CTGGTTCA | -0.21 |
| CATTTATA | 0.0769 |
| AGAACAAC | -0.0587 |
| CGACACTA | 0.134 |
| GCCGTGGA | 0.195 |
| ACCGACTG | -0.142 |
| AACAAAAC | 0.0702 |
| ATAACAGA | 0.156 |
| TACCGGCA | 0.00574 |
| CAGTAGGA | -0.109 |
| AAATCCTT | -0.0769 |
| AGGGTTGA | 0.0068 |
| CACCGGTC | -0.225 |
| ACGCAAGG | 0.0355 |
| CTACCTCA | 0.0362 |
| AGCGCTAG | -0.093 |
| CATGTCCG | 0.0742 |
| CCCGGGCA | -0.249 |
| CTCGAATC | -0.0489 |
| AGACCGGG | -0.142 |
| CCGGACGA | 0.224 |
| CCTTCAGA | -0.183 |
| CACACGCG | 0.00836 |

| Sequence | PBM E-score |
| --- | --- |
| ATGTTAGG | 0.0436 |
| AGAAGTCT | -0.189 |
| GAGATTCC | -0.0944 |
| AATCTTCC | -0.0659 |
| ACACAAGA | -0.102 |
| CCATTAGA | -0.182 |
| ATCTAATG | -0.0859 |
| CTACATTA | 0.00301 |
| CACAAACA | 0.0103 |
| AGAACACC | -0.225 |
| GAGTCCCA | -0.122 |
| ATTACGAC | 0.237 |
| AGTTAGGG | -0.107 |
| CCCGTTCC | 0.0441 |
| AAACTTAA | 0.0359 |
| AACTGAGC | -0.0642 |
| CCGATAGG | -0.152 |
| CGTCATGC | 0.144 |
| ATCAATGG | -0.0171 |
| AGACGTGA | 0.227 |
| AGACATGG | -0.0803 |
| GTTTGTGA | -0.0115 |
